Experimental data as given in PubChem BioAssay AID330 (DTP/NCI, 2004).
The list is a part of this screen's results and no random one: it is rich in T/C values a quarter to a half above the control, in often repeated tests (any T/C) and in doses without a T/C. Other doses and runs of a compound stand elsewhere. T/C: endpoint of the treated group in % of that of the vehicle group. Some entries give survivors of the animals treated and no T/C: the source holds a T/C of zero for them, seemingly a mark for toxic or unscored doses. Some doses without a T/C left all or most animals alive at the check, yet need not have been tolerated: the source hardly ever lists a survival T/C far under the control, and the zero likely stands for such cases as well. Counts of survivors are from the toxicity check (mostly the fifth day) where no day follows; animals may have died later. Schedule codes are those of the source, taken here to give the interval after Q, in days (D) or hours (H), and the number of doses after X. Some entries were tested several times; the values are given in rising order. For survival time, the PubChem record calls one and a half times the control and up active, and a quarter to a half above the control has no call in these data; cut-offs in other NCI protocols can differ. Marks such as (2×) give the number of equal values in this list. Some T/C values are followed by the survivors on the day toxicity was checked, most often the fifth; where none is given, no animal had died by that day.

System: P388 leukemia ip, CD2F1 mice, survival T/C
Experiment: NCI In Vivo Anticancer Drug Screen. Data for tumor model P388 Leukemia (intraperitoneal) in CD2F1 (CDF1) mice
Details: T/C endpoint: median survival time, higher T/C = longer survival
[1] = dose: 200.0 mg/kg/injection, schedule: Q01DX005 (ip), vehicle: Klucel (hydroxypropylcellulose) (HPC)
[2] = dose: 200.0 mg/kg/injection, schedule: Q01DX009 (ip), vehicle: saline
[3] = dose: 600.0 mg/kg/injection, schedule: Q01DX009 (ip), vehicle: saline
[4] = dose: 240.0 mg/kg/injection, schedule: Q01DX005 (ip), vehicle: Klucel (hydroxypropylcellulose) (HPC)
[5] = dose: 400.0 mg/kg/injection, schedule: Q04DX003 (ip), vehicle: Klucel (hydroxypropylcellulose) (HPC)
[6] = dose: 50.0 mg/kg/injection, schedule: Q01DX009 (ip), vehicle: saline with Tween-80
[7] = dose: 200.0 mg/kg/injection, schedule: Q01DX009 (ip), vehicle: saline with Tween-80
[8] = dose: 200.0 mg/kg/injection, schedule: Q01DX005 (ip), vehicle: saline with Tween-80
[9] = dose: 100.0 mg/kg/injection, schedule: Q01DX009 (ip), vehicle: saline
[10] = dose: 100.0 mg/kg/injection, schedule: Q01DX005 (ip), vehicle: Klucel (hydroxypropylcellulose) (HPC)
[11] = dose: 25.0 mg/kg/injection, schedule: Q01DX009 (ip), vehicle: saline with Tween-80
[12] = dose: 50.0 mg/kg/injection, schedule: Q01DX009 (ip), vehicle: Klucel (hydroxypropylcellulose) (HPC)

**Q.** With `C/C(CCl)=N\NC1=NC(C)(CCl)P(=O)(NNc2ncccn2)S1` (centres undefined) as the compound, how does the T/C (dose: 15.0 mg/kg/injection, schedule: Q01DX005 (ip), vehicle: saline) read?
**A.** 129 % of control

**Q.** What about the survivor count (dose: 120.0 mg/kg/injection, schedule: Q01DX005 (ip), vehicle: saline) of the same compound?
**A.** 3 of 6

**Q.** And the survivor count (dose: 240.0 mg/kg/injection, schedule: Q01DX005 (ip), vehicle: saline)?
**A.** 0 of 6

**Q.** For `CN1C2=NC(=O)NC(=O)C23OC3c2ccccc21` (centres undefined) (tested in a mixture with another compound), which survivor count [1] is on record?
**A.** 0 of 6

**Q.** What does the source list for `CCN(CC)CCNC(=S)NNc1nc(C)ccc1[N+](=O)[O-]`?
**A.** survivor count (dose: 100.0 mg/kg/injection, schedule: Q01DX009 (ip), vehicle: Klucel (hydroxypropylcellulose) (HPC)): 6 of 6; survivor count (dose: 200.0 mg/kg/injection, schedule: Q01DX009 (ip), vehicle: Klucel (hydroxypropylcellulose) (HPC)): 2 of 6

**Q.** Which results are given for `O=c1ncccn1[C@@H]1O[C@H](CO)[C@H](O)C1O` (some centres undefined)?
**A.** T/C [2]: 125 and 134 % of control; T/C (dose: 400.0 mg/kg/injection, schedule: Q01DX009 (ip), vehicle: saline): 137 % of control; T/C [3]: 145 % of control

**Q.** For `CC1(C)OC(=O)N=C1c1ccc(Cl)cc1`, which survivor count [4] is on record?
**A.** 0 of 6

**Q.** `NC(=S)N/N=C/c1cn(-c2ccccc2[N+](=O)[O-])cn1` was tested. Which survivor count [5] did it give?
**A.** 1 of 6

**Q.** Which survivor count [6] does the source give for `OC(c1cc(-c2ccc(C(F)(F)F)cc2)nc(-c2ccc(C(F)(F)F)cc2)c1)C1CCCCN1` (centres undefined) here?
**A.** 6 of 6

**Q.** What about the survivor count (dose: 100.0 mg/kg/injection, schedule: Q01DX009 (ip), vehicle: saline with Tween-80) of the same compound?
**A.** 0 of 6

**Q.** And the survivor count [7]?
**A.** 0 of 6

**Q.** What does the source list for `CCCCCCCCCCCCNNC(=O)[C@@H]1[C@H](c2cc(OC)c(OC)c(OC)c2)c2cc3c(cc2[C@H](O)[C@H]1CO)OCO3`?
**A.** T/C (dose: 100.0 mg/kg/injection, schedule: Q01DX005 (ip), vehicle: saline with Tween-80): 133 % of control; T/C [8]: 125 and 132 % of control; T/C (dose: 400.0 mg/kg/injection, schedule: Q01DX005 (ip), vehicle: saline with Tween-80): 142 % of control

**Q.** With `CC(C)CC(N)C(=O)OCN1C(=O)C2C3C=CC(C2C1=O)C1C2C(=O)N(COC(=O)C(N)CC(C)C)C(=O)C2C31` (centres undefined) as the compound, how does the survivor count [2] read?
**A.** 5 of 6

**Q.** For `Cc1ccc(S(=O)(=O)OC2COC(OCc3ccccc3)C(OS(=O)(=O)c3ccc(C)cc3)C2O)cc1` (centres undefined), which survivor count [8] is on record?
**A.** 6 of 6

**Q.** How did the survivor count (dose: 12.0 mg/kg/injection, schedule: Q01DX005 (ip), vehicle: distilled water + Tween-80) turn out when `CCN(CC)CCNc1ccc(COC(=O)NC)c2oc3ccccc3c(=O)c12` was run?
**A.** 5 of 6

**Q.** And the survivor count (dose: 25.0 mg/kg/injection, schedule: Q01DX005 (ip), vehicle: distilled water + Tween-80)?
**A.** 0 of 6

**Q.** And the survivor count (dose: 50.0 mg/kg/injection, schedule: Q01DX005 (ip), vehicle: distilled water + Tween-80)?
**A.** 0 of 6

**Q.** And the survivor count (dose: 100.0 mg/kg/injection, schedule: Q01DX005 (ip), vehicle: distilled water + Tween-80)?
**A.** 0 of 6

**Q.** And the survivor count (dose: 200.0 mg/kg/injection, schedule: Q01DX005 (ip), vehicle: distilled water + Tween-80)?
**A.** 0 of 6

**Q.** How did the survivor count [8] turn out when `Cc1ccc(S(=O)(=O)NC(=O)Nc2sc(=S)c3c(c2C#N)CCCC3)cc1` was run?
**A.** 0 of 5

**Q.** With `CCCCCCCCCCCC(=O)OC1CCC2(C)C(=CCC3C2CCC2(C)C(C(C)/C=C/C(CC)C(C)C)CCC32)C1` (centres undefined) as the compound, how does the survivor count (dose: 400.0 mg/kg/injection, schedule: Q04DX003 (ip), vehicle: other) read?
**A.** 5 of 6

**Q.** For `CCSc1nc2c(N)nc(N)nc2[nH]c1=O`, which survivor count [5] is on record?
**A.** 0 of 6

**Q.** For `FC(F)(F)Sc1c(SC(F)(F)F)c(SC(F)(F)F)n(-n2c(SC(F)(F)F)c(SC(F)(F)F)c(SC(F)(F)F)c2SC(F)(F)F)c1SC(F)(F)F`, which survivor count (dose: 120.0 mg/kg/injection, schedule: Q01DX005 (ip), vehicle: Klucel (hydroxypropylcellulose) (HPC)) is on record?
**A.** 0 of 6

**Q.** And the survivor count [4]?
**A.** 0 of 6

**Q.** Which results are given for `Cc1ccc(C(=O)Nc2ccc(S(=O)(=O)O)c3cc(S(=O)(=O)O)cc(S(=O)(=O)O)c23)cc1NC(=O)c1cccc(NC(=O)Nc2cccc(C(=O)Nc3cc(C(=O)Nc4ccc(S(=O)(=O)O)c5cc(S(=O)(=O)O)cc(S(=O)(=O)O)c45)ccc3C)c2)c1`?
**A.** survivor count (dose: 100.0 mg/kg/injection, schedule: Q01DX005 (ip), vehicle: saline): 4 of 6; survivor count (dose: 200.0 mg/kg/injection, schedule: Q01DX005 (ip), vehicle: saline): 2 of 6

**Q.** Which results are given for `O=C/C=C/c1ccc([N+](=O)[O-])cc1Cl`?
**A.** survivor count [7]: 6 of 6; survivor count (dose: 400.0 mg/kg/injection, schedule: Q01DX009 (ip), vehicle: saline with Tween-80): 6 of 6

**Q.** `CNC1=CC(=O)c2c(c3cc(O)ccc3n2C)C1=O` was tested. Which survivor count [9] did it give?
**A.** 5 of 6

**Q.** Which results are given for `O=C(Nc1cccc(NC(=O)Nc2cccc(C3=NCCN3)c2)c1)Nc1cccc(C2=NCCN2)c1`?
**A.** T/C (dose: 27.0 mg/kg/injection, schedule: Q01DX010 (ip), vehicle: saline): 131 % of control; T/C (dose: 40.0 mg/kg/injection, schedule: Q01DX010 (ip), vehicle: saline): 127 % of control; T/C (dose: 66.0 mg/kg/injection, schedule: Q01DX010 (ip), vehicle: saline): 127 % of control

**Q.** What does the source list for `[CH3][Sn]1([CH3])[O]C2C(O)OC(CO)C(O)C2[O]1` (centres undefined)?
**A.** T/C (dose: 50.0 mg/kg/injection, schedule: Q01DX005 (ip), vehicle: Klucel (hydroxypropylcellulose) (HPC)): 118 (2×), 120, 121 % of control; survivor count [10]: 2 of 6; survivor count [1]: 0 of 6

**Q.** What does the source list for `c1ccc(C2=C([P+](c3ccccc3)(c3ccccc3)c3ccccc3)CCN2)cc1`?
**A.** T/C (dose: 1.56 mg/kg/injection, schedule: Q01DX009 (ip), vehicle: saline with Tween-80): 129 % of control; T/C (dose: 3.12 mg/kg/injection, schedule: Q01DX009 (ip), vehicle: saline with Tween-80): 129 % of control; T/C (dose: 6.25 mg/kg/injection, schedule: Q01DX009 (ip), vehicle: saline with Tween-80): 133 % of control; T/C (dose: 9.38 mg/kg/injection, schedule: Q01DX009 (ip), vehicle: saline with Tween-80): 129 % of control [4 of 6 alive]; survivor count (dose: 12.5 mg/kg/injection, schedule: Q01DX009 (ip), vehicle: saline with Tween-80): 6 of 6; survivor count [11]: 3 of 6; survivor count [6]: 0 of 6

**Q.** `CN(CO)c1nc(N(C)CO)nc(N(C)CO)n1` was tested. Which T/C (dose: 25.0 mg/kg/injection, schedule: Q01DX009 (ip), vehicle: saline) did it give?
**A.** 125 % of control

**Q.** And the T/C [6]?
**A.** 139 % of control

**Q.** What about the T/C (dose: 50.0 mg/kg/injection, schedule: Q01DX009 (ip), vehicle: saline) of the same compound?
**A.** 148 % of control

**Q.** And the T/C [9]?
**A.** 132 % of control

**Q.** What about the survivor count [7] of the same compound?
**A.** 2 of 5

**Q.** And the survivor count [2]?
**A.** 2 of 6 and 5 of 6

**Q.** For `Cc1ccc(S(=O)(=O)N(Cl)Cl)cc1`, which survivor count [12] is on record?
**A.** 3 of 6

**Q.** `c1ccc2c(C[Se][Se]Cc3cccc4ccccc34)cccc2c1` was tested. Which survivor count [12] did it give?
**A.** 6 of 6

**Q.** Which results are given for `CCCCCCCCCCCC[C@@H](O)[C@H]1CC[C@H]([C@H](O)CCCC[C@H](O)CCCCC[C@@H](O)CC2=C[C@H](C)OC2=O)O1`?
**A.** survivor count (dose: 3.0 mg/kg/injection, schedule: Q01DX009 (ip), vehicle: other): 3 of 4; survivor count (dose: 6.0 mg/kg/injection, schedule: Q01DX009 (ip), vehicle: other): 0 of 4

**Q.** `O=[Se]([O][Sn]([O][Se](=O)c1ccccc1)([O][Se](=O)c1ccccc1)[c]1ccccc1)c1ccccc1` (centres undefined) was tested. Which survivor count [7] did it give?
**A.** 1 of 6, 3 of 6, 4 of 6

**Q.** With `COc1cc(/C=C/[N+](=O)[O-])cc(Br)c1O` as the compound, how does the survivor count (dose: 240.0 mg/kg/injection, schedule: Q01DX005 (ip), vehicle: saline with Tween-80) read?
**A.** 0 of 6

**Q.** Which survivor count [10] does the source give for `CCOC(=O)C1C(=O)C(=O)OC1CC(C)C` (centres undefined) here?
**A.** 2 of 5

**Q.** And the survivor count [1]?
**A.** 0 of 5

**Q.** How did the survivor count [3] turn out when `O=C(O)CCc1ccc(O)c(O)c1` was run?
**A.** 2 of 6 and 4 of 6

**Q.** For `Cc1c(Cl)cccc1Nc1ncccc1C(=O)O`, which survivor count [8] is on record?
**A.** 3 of 6

**Q.** For `COC(=O)C1=C(C)NC(=O)NC1c1ccc(N(CCCl)CCCl)c(OC)c1` (centres undefined), which survivor count [11] is on record?
**A.** 1 of 6
